The assay has as its target Heterogeneous nuclear ribonucleoprotein (HNRNP) A1 (human (endogenous in HEK293A)) (UniProt P09651). Briefly: co-IP; HEK293A cells, immunoprecipitation with an antibody for HNRNP A1, immunoblot for endogenous EIF3B. On the technique in general: In western blotting, separated proteins are transferred to a membrane and probed.

Sequences of proteins named here, by UniProt entry; tags and fusion partners are left off.
UniProt P09651: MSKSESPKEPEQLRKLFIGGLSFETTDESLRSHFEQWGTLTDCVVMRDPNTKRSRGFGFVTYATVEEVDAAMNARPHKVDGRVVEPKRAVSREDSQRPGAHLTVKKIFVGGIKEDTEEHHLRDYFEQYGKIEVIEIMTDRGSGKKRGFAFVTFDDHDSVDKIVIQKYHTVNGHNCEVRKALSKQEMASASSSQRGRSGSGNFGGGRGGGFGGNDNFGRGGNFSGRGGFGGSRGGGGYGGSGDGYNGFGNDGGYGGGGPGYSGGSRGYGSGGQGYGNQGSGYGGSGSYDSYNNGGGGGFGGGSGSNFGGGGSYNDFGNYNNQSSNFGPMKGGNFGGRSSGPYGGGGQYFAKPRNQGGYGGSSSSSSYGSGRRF
UniProt P55884: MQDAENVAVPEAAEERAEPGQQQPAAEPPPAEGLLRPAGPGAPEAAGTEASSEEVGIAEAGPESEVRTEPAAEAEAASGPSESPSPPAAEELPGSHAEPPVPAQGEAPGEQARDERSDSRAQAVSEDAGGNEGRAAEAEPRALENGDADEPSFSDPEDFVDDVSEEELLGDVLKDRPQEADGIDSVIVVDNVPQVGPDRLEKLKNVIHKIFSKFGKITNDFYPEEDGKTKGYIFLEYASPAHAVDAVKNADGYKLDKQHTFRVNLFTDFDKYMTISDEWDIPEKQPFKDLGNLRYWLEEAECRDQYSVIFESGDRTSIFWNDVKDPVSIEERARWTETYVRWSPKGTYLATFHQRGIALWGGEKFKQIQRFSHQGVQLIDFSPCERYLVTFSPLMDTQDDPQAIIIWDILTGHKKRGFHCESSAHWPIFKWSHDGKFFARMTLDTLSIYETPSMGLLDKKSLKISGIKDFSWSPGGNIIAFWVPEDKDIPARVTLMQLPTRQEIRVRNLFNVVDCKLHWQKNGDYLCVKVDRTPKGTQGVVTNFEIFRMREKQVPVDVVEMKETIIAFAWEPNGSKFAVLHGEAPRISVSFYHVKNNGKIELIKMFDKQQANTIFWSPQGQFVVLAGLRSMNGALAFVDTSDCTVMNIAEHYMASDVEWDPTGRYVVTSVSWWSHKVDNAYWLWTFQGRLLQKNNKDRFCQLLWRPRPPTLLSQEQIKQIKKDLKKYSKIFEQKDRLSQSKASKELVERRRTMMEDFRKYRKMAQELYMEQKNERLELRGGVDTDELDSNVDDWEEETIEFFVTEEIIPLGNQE

No constants are given. Whether binding was seen depends on the method and setting. In cells and extracts the contact can be indirect. Some binding calls cover weakened binding; strength is not graded here.

Consider “translation initiation factor EIF3B (from UniProt P55884 1-814)”, for which the binding result is on record as “binds”.
